Counter-ions that a name gives are not always drawn.
Assay: Daily food consumption over the 7 days
Format: in vivo, Sprague-Dawley rats
Conditions: pioglitazone 0.03% diet, not significantly different from vehicle
Method: On day 1, rats were weighed and then received an ad mixed diet (ad lib) containing 0.03% pioglitazone in place of standard chow. Food weight was recorded in order to track consumption over the course of the experiment. At this time, rats were also given drinking water containing compound at the appropriate concentration. Full bottles were pre-weighed and recorded in order to track consumption over the course of the experiment. On day 7, rats, food and water bottles were again weighed and recorded, hematocrits were determined using blood collected by a tail nick. The daily dose of pioglitazone received by each rat was calculated from the total food consumption and the animal's average body weight. Daily dose of TEST COMPOUND or amiloride received by each rat was calculated from the total water consumption and the animal's average body weight.

| SMILES | Daily food consumption (in words) |
| --- | --- |
| N=C(N)NC(=O)c1nc(Cl)c(N)nc1N [Amiloride, Amiloride HCl Hydrate, reference compound] | slightly lower consumption |
| OC[C@H]1O[C@@H](c2ccc(Cl)c(Cc3ccc(OCCOC4CC4)cc3)c2)[C@H](O)[C@@H](O)[C@@H]1O [TEST COMPOUND, (2S,3R,4R,5S,6R)-2-(4-chloro-3-(4-(2-cyclopropoxyethoxy)benzyl)phenyl)-6-(hydroxymethyl)tetrahydro-2H-pyran-3,4,5-triol] | slightly higher consumption |
